Test results reported in the supplement of paper PMC12889115.
Some of the results follow. Values are raw readings; no control value is given beside them.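 Primary screen: polymyxin B was added at a level permeabilizing Salmonella outer membranes while sparing inner membranes. DMSO wells, both with and without polymyxin B, established maximum growth. Plate-to-plate variation meant each plate was ranked on its own, and the lowest-OD600 compounds were selected as hits.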

Test system: Salmonella enterica serovar Typhimurium SL1344
Assay: bacterial growth OD600 after 18 h with compound and polymyxin B; higher = more bacterial growth (less inhibition)
Conditions: 50 µM, Mueller-Hinton broth

SMILES | bacterial growth OD600 (polymyxin B 0.75 µg/mL) | bacterial growth OD600 (polymyxin B 1 µg/mL)
Cc1cccc2c(NCc3ccccc3F)nc(CNC(=O)CN3CC(c4ccccc4)CC3=O)nc12 (stereo not given) | 0.015 | –
CCc1csc(CNC(=O)c2ccc(N(C)Cc3ccccn3)nc2)n1 | – | 0.775
Cc1cccnc1CN(C)C(=O)C1CCC(=O)N(CCc2cccc(F)c2)C1 (stereo not given) | – | 0.901
O=C(c1ccc(NCC2CCOCC2)nc1)N1CCCC(c2ccccc2)CC1 (stereo not given) | 0.696 | –
CCOC(=O)C1(CCCc2ccccc2)CCN(C(=O)c2cnn(CC)c2)CC1 | – | 0.732
CCOC(=O)C1(Cc2cccc(F)c2)CCN(C(=O)c2cnc(C)cn2)CC1 | – | 0.98
Cc1nonc1CC(=O)N(C)CC1CCCN(CCc2ccc(Cl)cc2)C1 (stereo not given) | – | 0.832
Cc1cccc2nc(CN(C)C(=O)C3CCC(=O)N(CCc4ccccc4)C3)[nH]c12 (stereo not given) | – | 0.827
O=C(NCCc1ccccc1Cl)C1CCC(=O)N(Cc2ccc(Cl)cc2)C1 (stereo not given) | – | 0.657
COc1ccc(-c2cnnc(NCC3CCCCO3)n2)cc1F (stereo not given) | 0.634 | –
O=C(Nc1ccc(Oc2ccccc2F)cc1)C1CCN(Cc2ccoc2)CC1 | 0.563 | –
CN(CC1(O)CCCN(CCc2ccccc2)C1=O)C1CCCCC1 (stereo not given) | – | 0.887
C=CCO[C@H]1[C@H](NC(=O)COC)c2ccccc2C12CCN(Cc1ccccc1-c1ccco1)CC2 | 0.879 | –
O=C(NCCCc1ccncc1)C1CC12CCN(C(=O)c1csc(-c3cccs3)n1)CC2 (stereo not given) | 0.792 | –
CC(C)CN1CCN(C(=O)c2cn(C(c3ccccc3)c3ccccc3)nn2)[C@@H](C)C1=O | – | 0.346
CC(C)c1nc(CNC(=O)c2ccc(OCC3(C)CCCNC3)nc2)no1 (stereo not given) | 0.988 | –
COc1ccc(C(=O)N2CCCC2)c(OC2CCN(C(C)COc3ccccc3)CC2)c1 (stereo not given) | – | 1.02
O=C(c1cc2c(nc1Cl)CCC2)N1CCCC(Nc2ccc3c(c2)OCCO3)C1 (stereo not given) | – | 0.801
COc1ccc(CNC(C)c2cnn(-c3ccccc3)c2C)cc1O (stereo not given) | 0.816 | –
O=C(c1ccc(N2CCOCC2)nc1)N1CCC(CCc2ccccc2)CC1 | – | 0.578

Copied from the list:
For bacterial growth OD600 (polymyxin B 0.75 µg/mL), `O=C(NCCCc1ccncc1)C1CC12CCN(C(=O)c1csc(-c3cccs3)n1)CC2` (stereo not given) reads 0.792
For bacterial growth OD600 (polymyxin B 1 µg/mL), `Cc1nonc1CC(=O)N(C)CC1CCCN(CCc2ccc(Cl)cc2)C1` (stereo not given) reads 0.832
